This note sets out measurements from paper PMC7667862.

Amino acid sequences for entries named in this document (tags omitted).
UniProt Q99558: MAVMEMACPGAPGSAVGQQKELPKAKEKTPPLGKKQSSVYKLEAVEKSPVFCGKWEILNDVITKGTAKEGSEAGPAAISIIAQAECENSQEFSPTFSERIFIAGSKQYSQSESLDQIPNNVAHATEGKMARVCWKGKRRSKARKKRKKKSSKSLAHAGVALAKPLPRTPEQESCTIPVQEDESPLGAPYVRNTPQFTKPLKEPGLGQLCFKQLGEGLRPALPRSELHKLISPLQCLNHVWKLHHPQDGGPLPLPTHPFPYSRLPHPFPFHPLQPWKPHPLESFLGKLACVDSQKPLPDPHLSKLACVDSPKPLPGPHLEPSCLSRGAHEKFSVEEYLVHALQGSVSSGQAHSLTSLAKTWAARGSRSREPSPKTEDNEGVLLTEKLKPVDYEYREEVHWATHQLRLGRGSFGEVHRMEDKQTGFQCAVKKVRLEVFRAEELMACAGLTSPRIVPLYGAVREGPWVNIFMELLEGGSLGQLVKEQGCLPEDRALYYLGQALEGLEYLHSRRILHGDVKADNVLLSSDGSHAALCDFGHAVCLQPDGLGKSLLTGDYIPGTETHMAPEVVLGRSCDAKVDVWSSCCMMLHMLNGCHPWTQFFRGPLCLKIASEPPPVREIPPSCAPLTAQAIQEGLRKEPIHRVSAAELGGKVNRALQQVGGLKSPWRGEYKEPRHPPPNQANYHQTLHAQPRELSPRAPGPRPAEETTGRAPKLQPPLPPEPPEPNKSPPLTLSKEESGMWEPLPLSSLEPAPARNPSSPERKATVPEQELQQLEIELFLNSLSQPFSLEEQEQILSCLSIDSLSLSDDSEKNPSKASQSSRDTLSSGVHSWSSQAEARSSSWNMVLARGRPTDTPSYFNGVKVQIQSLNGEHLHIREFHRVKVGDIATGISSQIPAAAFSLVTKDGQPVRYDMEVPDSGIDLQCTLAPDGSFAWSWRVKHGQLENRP
UniProt Q6GQQ9: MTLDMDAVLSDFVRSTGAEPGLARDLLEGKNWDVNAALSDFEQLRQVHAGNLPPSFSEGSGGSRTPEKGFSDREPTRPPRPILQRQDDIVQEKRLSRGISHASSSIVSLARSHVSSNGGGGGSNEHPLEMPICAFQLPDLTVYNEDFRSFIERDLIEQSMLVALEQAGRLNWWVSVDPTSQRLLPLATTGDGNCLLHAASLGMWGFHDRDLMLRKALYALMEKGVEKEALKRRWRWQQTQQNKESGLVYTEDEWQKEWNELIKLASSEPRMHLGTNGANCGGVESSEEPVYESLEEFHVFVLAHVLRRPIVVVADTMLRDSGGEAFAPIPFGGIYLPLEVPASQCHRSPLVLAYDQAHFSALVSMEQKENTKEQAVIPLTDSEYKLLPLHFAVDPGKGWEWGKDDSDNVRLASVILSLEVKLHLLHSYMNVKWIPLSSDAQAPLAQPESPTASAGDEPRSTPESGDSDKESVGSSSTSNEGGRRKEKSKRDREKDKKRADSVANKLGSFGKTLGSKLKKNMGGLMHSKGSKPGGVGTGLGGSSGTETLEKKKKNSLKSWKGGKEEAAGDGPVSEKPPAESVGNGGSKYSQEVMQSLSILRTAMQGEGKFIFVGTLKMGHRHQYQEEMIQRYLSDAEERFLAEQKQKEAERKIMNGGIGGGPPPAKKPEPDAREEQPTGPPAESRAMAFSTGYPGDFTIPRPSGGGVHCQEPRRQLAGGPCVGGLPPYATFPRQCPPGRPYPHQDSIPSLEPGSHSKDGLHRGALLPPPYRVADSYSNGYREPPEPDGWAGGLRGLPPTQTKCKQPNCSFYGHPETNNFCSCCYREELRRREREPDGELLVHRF

Results are given in words; binding and its absence hold for the method and conditions named. Binding seen in cells or lysates may run through a third protein.

The target in this assay is Myc-NIK (NF-κB-inducing kinase) (UniProt Q99558). In words: co-IP; H1299 cells cotransfected with two tagged plasmids for 48 h; reciprocal co-immunoprecipitation with anti-Flag, anti-Myc and anti-HA antibodies, western blotting.

For “HA-tagged OTUD7B (OTU domain-containing 7B) (from UniProt Q6GQQ9 1-843) (enzyme)”, the binding entry is on record as “no binding”.
